# Results reported in paper PMC7819943, “Rice protein-binding microarrays: a tool to detect cis-acting elements near promoter regions in rice”.
# Chains of the proteins cited; added tags and fusions are not shown.
# UniProt Q0JBA9, entry or part of it: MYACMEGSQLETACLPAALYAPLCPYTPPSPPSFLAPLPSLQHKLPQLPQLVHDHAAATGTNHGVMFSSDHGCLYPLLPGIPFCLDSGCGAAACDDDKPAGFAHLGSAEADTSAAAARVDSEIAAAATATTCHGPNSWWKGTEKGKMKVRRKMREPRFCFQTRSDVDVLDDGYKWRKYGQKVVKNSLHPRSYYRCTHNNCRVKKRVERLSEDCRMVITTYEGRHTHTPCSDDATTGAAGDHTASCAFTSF
# Some of the results follow.
# Biological target: OsWRKY34 (Oryza sativa, UniProt Q0JBA9 1-250)
# Assay: protein-binding microarray (RPBM); PBS, 2% BSA, 51.3 ng/ul salmon testes DNA, 50 uM zinc acetate, 200 nM TF, 25 C, 1 h; high values mean tight binding
# Conditions: protein: recombinant; tags: N-terminal polyhistidine and DsRed monomer fusion (pET32a); label: CyDye5-dUTP incorporated in the synthesized complementary strand; 3' TTTTT single-stranded linker to array surface; dsDNA, one strand shown
# Procedure, shortened: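 The binding signal for each feature is its fluorescence intensity in arbitrary units. An Axon 4000B scanner was used to read a custom Agilent array that had been made double-stranded with Cy5-dUTP primer extension, blocked with 2% BSA, incubated at 25 °C for 1 h with 200 nM protein in PBS, 2% BSA, salmon testes DNA and 50 µM zinc acetate, and washed. The protein was an N-terminal polyhistidine–DsRed transcription factor fusion from E. coli BL21-CodonPlus, purified on Ni–NTA.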
row,Sequence,binding signal
1,GCTCCAGCGCTGTCAAACTTTTTCTCCACCGCTCCAGCCGCGGAGTCACCTAGTGCAG,9100 fluorescence intensity (a.u.)
2,ATGTTTGACTTTTTTTTAAAAAATTTATATTTTTTTAAATCGGAGTCACCTAGTGCAG,8390 fluorescence intensity (a.u.)
3,CGTGGCCACTGCTACCTACCTTGCATCTCTTCTGCCTTTTCGGAGTCACCTAGTGCAG,9090 fluorescence intensity (a.u.)
4,GGTTCCATGCCTCGCCGTTTATCTATCTAATTTACTAGCACGGAGTCACCTAGTGCAG,9110 fluorescence intensity (a.u.)
5,CTTCAAGAACCGGGTTTATATTCATATACTTTTCTACCAGCGGAGTCACCTAGTGCAG,8210 fluorescence intensity (a.u.)
6,TTGGTGTTGGTGTTGTTGTTGATGCTTCTTTGATGAGCGCCGGAGTCACCTAGTGCAG,12600 fluorescence intensity (a.u.)
7,ATAGTCAGGTGAAATAAGGGGCTATTTTTTCTCAGAATCTCGGAGTCACCTAGTGCAG,8320 fluorescence intensity (a.u.)
8,TCCAAGTGCTTTCGAGCTCCGATCGCTTTTCCCCTTCATTCGGAGTCACCTAGTGCAG,8920 fluorescence intensity (a.u.)
9,GCCCAATCTGATCTACTTCATTCTCTAGTGGCCTAACAATCGGAGTCACCTAGTGCAG,11400 fluorescence intensity (a.u.)
10,GCTTCCACGTCTCCCTCCTTATCTGTGACCCACTCCGTCGCGGAGTCACCTAGTGCAG,8640 fluorescence intensity (a.u.)
11,TCTATTCGTCTCCCTTTTCTCTTTTCCGTTTTGGTTTCTACGGAGTCACCTAGTGCAG,9420 fluorescence intensity (a.u.)
12,AATAGCATTCACCAGTTGCAACGCACGGGCATTTATATATCGGAGTCACCTAGTGCAG,8140 fluorescence intensity (a.u.)
13,GCCCAATACTAGTCCAACCAAATTGCCCACACTCCACGCACGGAGTCACCTAGTGCAG,8260 fluorescence intensity (a.u.)
14,CTTGGTGGCTCAATTATAATCTCTTTTCCCACTGTGTTGCCGGAGTCACCTAGTGCAG,10000 fluorescence intensity (a.u.)
15,CTCCGTTTCACAATGTAAGTCATTTTAGTATTTTCCACATCGGAGTCACCTAGTGCAG,8500 fluorescence intensity (a.u.)
16,ACTGCCGAGTGAAAACCTAGTCTTAGCTCTCTTTGAGACCCGGAGTCACCTAGTGCAG,8170 fluorescence intensity (a.u.)
17,CTCAGTCTCAATCTGTGCACTACTGTTTTTTTTTCAGGTTCGGAGTCACCTAGTGCAG,10300 fluorescence intensity (a.u.)
18,CTCCGCCGCGTGCTCTCCGCCTACGGCCTCTTGTATCCCGCGGAGTCACCTAGTGCAG,8450 fluorescence intensity (a.u.)
19,TTACTCAACTCCTAATACTACATGTGATATCATTGAAAAACGGAGTCACCTAGTGCAG,8460 fluorescence intensity (a.u.)
20,CTGTGATGAGTTTGCTGTGTTGTCATCTTCTGTTAGTGGACGGAGTCACCTAGTGCAG,11100 fluorescence intensity (a.u.)
21,TCAAATCGTCCCTCGGACCTACTCGATTTTCGTGGCTTTCCGGAGTCACCTAGTGCAG,8520 fluorescence intensity (a.u.)

row,Sequence,binding signal
1,TCCTTGGCCTTTTTCATACTTTTCTTTTTCTTTTTCTTCGCGGAGTCACCTAGTGCAG,10600 fluorescence intensity (a.u.)
2,TACGTAACTTTCCATATGCCATCTCTCGACGTTGCACAAACGGAGTCACCTAGTGCAG,8850 fluorescence intensity (a.u.)
3,TCGTATACACTTGCTAGTACATAATTTATTTTTATTTTACCGGAGTCACCTAGTGCAG,10000 fluorescence intensity (a.u.)
4,CCAAGGTTGTAATATTATAATTTTTCCTGCTCTATCAATACGGAGTCACCTAGTGCAG,8630 fluorescence intensity (a.u.)
5,TTTTTTTGCAAATCACCCCACCCAATTTTACAATTAACGACGGAGTCACCTAGTGCAG,9040 fluorescence intensity (a.u.)
6,ATACCGTGATTGGGATTACCTGTGACCTTGCCTATTTGACCGGAGTCACCTAGTGCAG,9120 fluorescence intensity (a.u.)
7,CATGATCGAACACCTGTAACGTTGTTTGTGCTCCGTGGGTCGGAGTCACCTAGTGCAG,9300 fluorescence intensity (a.u.)
8,CGTCTCGCCGTCTAGCTTATTAATGTGTACTCAGTCTACACGGAGTCACCTAGTGCAG,11200 fluorescence intensity (a.u.)
9,GGGAGGGCCCACCACCAGCCGCCATTCTCTCCTCGATTTCCGGAGTCACCTAGTGCAG,8080 fluorescence intensity (a.u.)
10,ATCACTTTATGCGCACTTTTCTTTGACGCCTTCCACAATTCGGAGTCACCTAGTGCAG,9560 fluorescence intensity (a.u.)
11,ACTGTTATTGTTAGATCCACTGCTCGAGTCAAATGTATTACGGAGTCACCTAGTGCAG,8610 fluorescence intensity (a.u.)
12,ACACTATTATATATACGGCCATCGATCCCAAGTTCCCGAACGGAGTCACCTAGTGCAG,8110 fluorescence intensity (a.u.)
13,TAGGGGAAGGCGGGACGTTACATTGGGCGGGCAGTCTATGCGGAGTCACCTAGTGCAG,11300 fluorescence intensity (a.u.)
14,AGTGTAGGTCGTCATGACAGGATCCTCTGCCCCTTTTACTCGGAGTCACCTAGTGCAG,8260 fluorescence intensity (a.u.)
15,ATTGACCACAATTTCAGTATATATACTTCTCTCTTGGTTGCGGAGTCACCTAGTGCAG,8280 fluorescence intensity (a.u.)
16,GAGAAATTTGTGTGGTTGTATTTTTTTTTGTGTATTTACACGGAGTCACCTAGTGCAG,11900 fluorescence intensity (a.u.)
17,CACTACCAGCCACTCCTACTCTACCTCTATCAACAAGTTCCGGAGTCACCTAGTGCAG,9810 fluorescence intensity (a.u.)
18,CCATGTTCTTATTACGTGGACACGTTGAGTCTGTGAAACTCGGAGTCACCTAGTGCAG,8940 fluorescence intensity (a.u.)
19,GCCTGCCGCCGCTCCCACCGCCCACCACCCGCCACCCGCCCGGAGTCACCTAGTGCAG,8810 fluorescence intensity (a.u.)
20,TTCTTTCTGTTTTGCCCTTACCTCAGCTCTGCTTGTGAATCGGAGTCACCTAGTGCAG,8810 fluorescence intensity (a.u.)
21,TTCCTAGGCTGTGTTTAGTTCAGTGCAAAGTTTGGATTTTCGGAGTCACCTAGTGCAG,8080 fluorescence intensity (a.u.)

# Copied from the list.
# TTCTTTCTGTTTTGCCCTTACCTCAGCTCTGCTTGTGAATCGGAGTCACCTAGTGCAG – binding signal: 8810 fluorescence intensity (a.u.)
# TTTTTTTGCAAATCACCCCACCCAATTTTACAATTAACGACGGAGTCACCTAGTGCAG – binding signal: 9040 fluorescence intensity (a.u.)
# ACTGTTATTGTTAGATCCACTGCTCGAGTCAAATGTATTACGGAGTCACCTAGTGCAG – binding signal: 8610 fluorescence intensity (a.u.)
